This is one part of the list. Many values rest on one well or one pass, so single values are uncertain.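 Primary human fetal astrocytes engulfed labelled rat cortical synaptosomes, measured as a red/green ratio corrected for calcein live-cell signal and scaled to the plate median. Toxicity meant calcein falling over 30%; decreased phagocytosis meant below 70% of median above 5 µM.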
Experiments:
Human fetal astrocytes [1] = assay: loss of total cells relative to no-compound high-control median (toxicity); higher = more toxic (fewer cells); conditions: 24 h
Human fetal astrocytes [2] = assay: synaptosome phagocytosis (pHrodo/calcein intensity ratio) relative to plate median of data wells; higher = more phagocytosis; conditions: 24 h

| Compound | loss of total cells (Human fetal astrocytes [1]; 1.39 µM) [%] | loss of total cells (Human fetal astrocytes [1]; 2.78 µM) [%] | loss of total cells (Human fetal astrocytes [1]; 5.56 µM) [%] | loss of total cells (Human fetal astrocytes [1]; 11.11 µM) [%] | loss of total cells (Human fetal astrocytes [1]; 22.22 µM) [%] | synaptosome phagocytosis (Human fetal astrocytes [2]; 1.39 µM) [%] | synaptosome phagocytosis (Human fetal astrocytes [2]; 2.78 µM) [%] | synaptosome phagocytosis (Human fetal astrocytes [2]; 5.56 µM) [%] | synaptosome phagocytosis (Human fetal astrocytes [2]; 11.11 µM) [%] | synaptosome phagocytosis (Human fetal astrocytes [2]; 22.22 µM) [%] |
| --- | --- | --- | --- | --- | --- | --- | --- | --- | --- | --- |
| C1CCN2C[C@@H]3C[C@H](CN4CCCC[C@@H]34)[C@H]2C1 | -11.5 | -1.1 | -9.5 | 5.4 | 0 | 132 | 134 | 118 | 87.5 | 95.5 |
| CC(=O)O[C@H]1CC[C@]2(C)[C@H]3CC=C4[C@@H]5CC(C)(C)CC[C@]5(C)CC[C@@]4(C)[C@]3(C)CC[C@H]2C1(C)C [beta-AMYRIN ACETATE] | -23.6 | -0.7 | -19.8 | 14.2 | 1.9 | 88 | 88.7 | 92 | 70.1 | 113 |
| CC(C)CCCC(C)N (stereo not given) | 19.9 | 12 | -16.8 | 32.3 | -16.7 | 153 | 128 | 103 | 92.5 | 57.7 |
| COc1cc(OC)c2c(OC)c(-c3ccc4c(c3)OCO4)c(=O)oc2c1 | -24.6 | 3.2 | -2.2 | 11.5 | 11.1 | 121 | 96.2 | 94.1 | 106 | 111 |
| COC(=O)C(Cc1ccccc1)NC(=O)/C(=C1/OC(=O)C(c2ccccc2)=C1O)c1ccccc1 (stereo not given) | -37.7 | -6.1 | 3.7 | 23 | 2.2 | 114 | 106 | 138 | 105 | 123 |
